Data published in US9138495B2, “Conjugates and their uses in molecular imaging” (King's College London, priority 2010, dated 2015).

Experiment: Radiolabelling yield with ^67Ga by TLC analysis
Conditions: CP256: PBS, 25° C., DOTA: acetate, 80° C.

Compound: CC(=O)NC(CCC(=O)NCc1c(O)c(=O)cc(C)n1C)(CCC(=O)NCc1c(O)c(=O)cc(C)n1C)CCC(=O)NCc1c(O)c(=O)cc(C)n1C.Cl.Cl.Cl [CP256, 4-Acetylamino-4-{2-[(3-hydroxy-1,6-dimethyl-4-oxo-1,4-dihydro-pyridin-2-ylmethyl)-carbamoyl]-ethyl}-heptanedioic acid bis-[(3-hydroxy-1,6-dimethyl-4-oxo-1,4-dihydro-pyridin-2-ylmethyl)-amide]tris hydrochloride salt]
- Radiotracer labelling yield (ligand concentration 10 nM): 0%
- Radiotracer labelling yield (ligand concentration 100 nM): 0%
- Radiotracer labelling yield (ligand concentration 1 μM): 84%
- Radiotracer labelling yield (ligand concentration 10 μM): 100%
- Radiotracer labelling yield (ligand concentration 100 μM): 100%
- Radiotracer labelling yield (ligand concentration 1 mM): 100%

Compound: O=C(O)CN1CCN(CC(=O)O)CCN(CC(=O)O)CCN(CC(=O)O)CC1 [DOTA, 1,4,7,10-tetraazacyclododecane-N,N′,N″,N′″-tetraacetic acid, reference compound]
- Radiotracer labelling yield (ligand concentration 10 nM): 0%
- Radiotracer labelling yield (ligand concentration 100 nM): 0%
- Radiotracer labelling yield (ligand concentration 1 μM): 0%
- Radiotracer labelling yield (ligand concentration 10 μM): 35%
- Radiotracer labelling yield (ligand concentration 100 μM): 100%
- Radiotracer labelling yield (ligand concentration 1 mM): 100%
